For at least one compound, name, drawing or mass did not settle the structure.
System: laser-induced CNV in rats
Assay: Laser-induced choroidal neovascularization in rats (CNV area, fluorescein angiography grades)
Format: in vivo, Brown Norway rats
Settings: day 14; one intravitreal injection after laser; 200 μg/eye (echistatin 5 μg, Avastin 125 μg)
Procedure: Fifty six male Brown Norway rats, approximately 200-300 grams of body weight and two months of age, were used in this study. This study was performed in two cohorts and only one eye of each rat was used.
The pupils were dilated and then the rats were anesthetized as described in baseline examination. The rats were positioned in front of a slit lamp system (Haag-Streit USA, Mason, Ohio). […] A diode laser (OcuLight TX, IRIDEX, Mountain View, Calif.) was used for photocoagulation (532 nm wavelength, 120 mW power, 50 μm spot size and 0.05 seconds duration). For each right eye, a series of six photocoagulation sites were concentrically placed between the major retinal vessels at equal distance (about two optic discs) around the optic nerve head. […] If a significant retinal or subretinal hemorrhage occurred during the laser photocoagulation, then the left eye was be photocoagulated and used as the experimental eye. […]
The incubation was performed in a humidified dark chamber with gentle rotation at 4° C. overnight. […] CNV complexes were identified using the red channel (isolectin), and their areas were quantified using the FluoView software (Version 1.7a).
Average FA scores and areas of CNV complexes in each group were presented as mean±SEM, unless otherwise indicated. They were analyzed using a one-way ANOVA followed by a Tukey-Kramer test after Box-Cox transformations. […]

With CC1(C)O[C@@H]2C[C@H]3[C@@H]4CCC5=CC(=O)C=C[C@]5(C)[C@@]4(F)[C@@H](O)C[C@]3(C)[C@]2(C(=O)CO)O1 [TA, triamcinolone acetonide, reference compound] the “CNV area / development of CNV on isolectin IB4-labeled flat mounts compared to vehicle-treated controls” value was “smaller area of CNV” and the “Mean score of fluorescein leakage (FA score) compared to vehicle-treated controls” value was “smaller means”.

Reference: patent US20110189174A1, “COMPOSITIONS AND METHODS FOR TREATING, REDUCING, AMELIORATING, ALLEVIATING, OR INHIBITING PROGRESSION OF, PATHOGENIC OCULAR NEOVASCULARIZATION” (priority 2010, published 2011)
